“Also recorded” adds a separate entry of the source.
System: C57/BL mice
Assay: Acute effects in the tail-flick test (Experiment 2)
Conditions: mouse, in vivo
Description: Male C57/BL mice (IMP, Lodz, Poland), 22-24 g of body weight were group-housed in the standard laboratory cages and kept in a temperature-controlled colony room (21±2° C.) with a 12-hour light/dark cycle (light on: 07:00, off: 19:00). Commercial food and tap water were available ad libitum. Each experimental group consisted of 7-28 mice per treatment. All mice were used only once.
The intensity of the heat stimulus was adjusted so that the baseline tail-flick latency was ˜3 seconds. […] Each response assessment consisted of two separate measurements taken at different portions of the tail (spaced by 1.5-2 cm) and separated by 15 seconds. The mean of these responses was used for subsequent comparisons.
The N is given in brackets. Presented in FIG. 5 are mean±S.E.M. Area Under Curve (AUC) values calculated on the same data.

## CN1CC[C@]23c4c5ccc(O)c4O[C@H]2[C@@H](O)C=C[C@H]3[C@H]1C5 [Morphine, morphine]
  tail-flick responses (AUC) compared to placebo+placebo treatment: statistically significantly longer tail-flick responses; also recorded: differed significantly

— patent US7553866B2, “Thiolactones” (Eisai Corporation of North America, priority 2003, dated 2009)
